PMC11866804
No constants are given. Whether binding was seen depends on the method and setting. Binding seen in cells or lysates may run through a third protein. Some results given as binding are weak or reduced against the parent protein; the word gives no strength.

Chains of the proteins cited; added tags and fusions are not shown. Residues count along the entry.
UniProt P21860, residues 20-1342: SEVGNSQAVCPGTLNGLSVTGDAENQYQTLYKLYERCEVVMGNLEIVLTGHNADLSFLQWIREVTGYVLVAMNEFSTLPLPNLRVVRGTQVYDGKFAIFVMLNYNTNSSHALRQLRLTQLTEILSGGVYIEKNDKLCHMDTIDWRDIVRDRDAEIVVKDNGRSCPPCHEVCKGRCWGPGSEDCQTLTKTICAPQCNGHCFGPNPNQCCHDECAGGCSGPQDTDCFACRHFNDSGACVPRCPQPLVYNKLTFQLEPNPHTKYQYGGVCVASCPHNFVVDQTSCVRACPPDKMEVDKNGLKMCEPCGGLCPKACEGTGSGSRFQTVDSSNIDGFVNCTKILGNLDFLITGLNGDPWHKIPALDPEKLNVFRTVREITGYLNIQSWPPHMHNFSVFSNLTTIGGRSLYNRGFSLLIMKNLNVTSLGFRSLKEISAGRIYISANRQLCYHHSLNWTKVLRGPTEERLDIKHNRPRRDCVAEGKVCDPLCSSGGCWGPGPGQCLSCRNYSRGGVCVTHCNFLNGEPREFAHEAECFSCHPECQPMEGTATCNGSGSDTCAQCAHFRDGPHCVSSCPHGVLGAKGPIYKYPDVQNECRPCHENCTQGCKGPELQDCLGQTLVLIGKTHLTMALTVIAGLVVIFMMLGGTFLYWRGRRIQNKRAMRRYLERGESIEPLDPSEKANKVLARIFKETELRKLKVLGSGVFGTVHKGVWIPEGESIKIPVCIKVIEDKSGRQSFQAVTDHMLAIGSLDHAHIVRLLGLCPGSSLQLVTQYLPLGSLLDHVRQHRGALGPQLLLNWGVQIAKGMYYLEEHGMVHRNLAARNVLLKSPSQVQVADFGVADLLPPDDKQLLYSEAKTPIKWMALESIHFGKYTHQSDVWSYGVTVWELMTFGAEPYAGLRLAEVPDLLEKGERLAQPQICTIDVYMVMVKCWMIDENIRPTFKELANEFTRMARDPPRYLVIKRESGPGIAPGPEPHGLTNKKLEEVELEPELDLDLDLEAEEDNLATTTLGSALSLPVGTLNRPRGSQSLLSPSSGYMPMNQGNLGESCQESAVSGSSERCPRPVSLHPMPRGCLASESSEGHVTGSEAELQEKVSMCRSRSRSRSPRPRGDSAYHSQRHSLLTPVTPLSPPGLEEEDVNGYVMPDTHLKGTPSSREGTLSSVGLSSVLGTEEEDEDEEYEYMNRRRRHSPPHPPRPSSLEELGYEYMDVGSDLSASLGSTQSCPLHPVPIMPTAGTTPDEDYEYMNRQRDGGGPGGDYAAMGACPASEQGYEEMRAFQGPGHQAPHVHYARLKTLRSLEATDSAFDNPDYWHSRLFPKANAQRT

Molecular target: T1, CYLD (UniProt Q9NQC7)
T1 sequence: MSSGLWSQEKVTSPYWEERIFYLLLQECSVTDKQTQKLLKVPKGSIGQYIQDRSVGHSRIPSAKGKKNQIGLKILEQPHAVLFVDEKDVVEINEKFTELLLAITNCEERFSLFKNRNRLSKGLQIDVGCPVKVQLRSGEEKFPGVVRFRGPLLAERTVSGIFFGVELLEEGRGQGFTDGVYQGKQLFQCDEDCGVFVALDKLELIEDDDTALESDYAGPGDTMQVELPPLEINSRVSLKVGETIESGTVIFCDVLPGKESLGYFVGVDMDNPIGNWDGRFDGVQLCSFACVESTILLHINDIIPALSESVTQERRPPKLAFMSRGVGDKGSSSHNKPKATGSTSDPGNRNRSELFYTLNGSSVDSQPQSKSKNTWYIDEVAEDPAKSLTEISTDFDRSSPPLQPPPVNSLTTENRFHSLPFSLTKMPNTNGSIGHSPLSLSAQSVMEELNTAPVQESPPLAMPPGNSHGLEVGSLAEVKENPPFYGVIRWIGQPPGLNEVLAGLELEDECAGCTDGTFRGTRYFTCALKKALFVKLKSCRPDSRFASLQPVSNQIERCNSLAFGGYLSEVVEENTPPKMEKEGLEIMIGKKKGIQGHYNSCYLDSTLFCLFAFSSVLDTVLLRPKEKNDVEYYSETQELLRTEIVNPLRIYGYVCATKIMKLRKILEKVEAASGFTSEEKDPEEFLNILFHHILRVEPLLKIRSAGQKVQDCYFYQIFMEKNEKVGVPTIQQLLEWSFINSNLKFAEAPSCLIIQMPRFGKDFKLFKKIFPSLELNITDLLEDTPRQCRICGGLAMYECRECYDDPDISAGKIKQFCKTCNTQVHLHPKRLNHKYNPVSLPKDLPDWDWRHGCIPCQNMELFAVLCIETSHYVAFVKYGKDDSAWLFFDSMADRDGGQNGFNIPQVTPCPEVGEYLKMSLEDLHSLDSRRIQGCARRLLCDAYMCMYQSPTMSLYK
Assay: co-IP; HEK293T cells transfected with HER3-Flag and CYLD plasmids for 48 h; immunoprecipitated with HER3 or CYLD antibodies (Immunoprecipitation Kit, Sigma); Western blotting

binding: binds
Substance: HER3-Flag (from UniProt P21860 20-1342) (receptor)
